{
  "sequences": {"note": "The chains behind the UniProt entries cited, without tags or fusion partners. Residues count along the entry.", "UniProt P09606, 2-373 limits assumed": "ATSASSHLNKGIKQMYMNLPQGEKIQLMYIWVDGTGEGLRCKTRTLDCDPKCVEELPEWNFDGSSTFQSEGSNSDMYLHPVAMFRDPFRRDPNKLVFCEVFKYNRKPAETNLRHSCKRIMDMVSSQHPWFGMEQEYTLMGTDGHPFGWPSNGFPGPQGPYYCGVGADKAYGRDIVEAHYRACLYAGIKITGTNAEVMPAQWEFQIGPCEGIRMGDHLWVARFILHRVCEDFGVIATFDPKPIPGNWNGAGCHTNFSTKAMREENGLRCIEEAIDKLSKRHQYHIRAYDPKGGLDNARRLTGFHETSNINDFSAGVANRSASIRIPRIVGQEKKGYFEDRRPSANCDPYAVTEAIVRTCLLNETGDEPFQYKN", "UniProt P15105, 2-373 limits assumed": "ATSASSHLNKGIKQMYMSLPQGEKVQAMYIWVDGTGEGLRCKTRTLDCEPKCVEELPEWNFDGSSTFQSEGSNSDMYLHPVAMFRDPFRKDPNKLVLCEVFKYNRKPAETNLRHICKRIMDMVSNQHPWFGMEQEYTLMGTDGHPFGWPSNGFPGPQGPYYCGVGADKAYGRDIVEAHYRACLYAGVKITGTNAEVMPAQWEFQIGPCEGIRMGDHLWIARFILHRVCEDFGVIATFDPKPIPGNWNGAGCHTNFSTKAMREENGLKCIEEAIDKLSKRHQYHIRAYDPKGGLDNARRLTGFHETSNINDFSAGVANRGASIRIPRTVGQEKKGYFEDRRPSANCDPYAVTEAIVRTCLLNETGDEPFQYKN"},
  "source": "patent US20090209474A1",
  "about": "“NOVEL USES FOR DRUGS TARGETING GLUTAMINE SYNTHETASE” (NEWTHERA, priority 2005, published 2009)",
  "key": {"[1]": {"biological_target": "T1, GS (Rattus norvegicus, UniProt P09606)", "conditions": "GF 1 mg/kg, tianeptine 10 mg/kg, methyprednisolone 5 mg/kg i.p."}, "[2]": {"tested_on": "glucocorticoid receptor (GR)", "test": "Brain glucocorticoid receptor expression by ELISA in corticosterone-administered rats", "assay_type": "in vivo, Wistar rats"}, "[3]": {"tested_on": "purified sheep brain GS", "test": "Purified sheep brain GS activity (Meister's method, gamma-glutamylhydroxamate formation)", "assay_type": "biochemical"}, "[4]": {"biological_target": "T2, brain GS (Mus musculus, UniProt P15105)", "conditions": "i.p. 7 days"}, "[5]": {"biological_target": "T1, GS", "conditions": "for lung GS activity: versus PCB"}, "[6]": {"biological_target": "rat brain GS (Rattus norvegicus, UniProt P09606)", "conditions": "APS 1.5%"}, "[7]": {"tested_on": "GS", "conditions": "rat, in vivo"}, "[8]": {"biological_target": "T2, brain GS", "conditions": "24 h after single i.p."}, "[9]": {"conditions": "GF 3 mg/kg, tianeptine 15 mg/kg"}, "[10]": {"conditions": "21 days, versus PCB and Control"}},
  "note": "Read-outs that look alike come from different tables or passages of the source.",
  "data": [
    {"molecule": "CN1c2ccccc2C(NCCCCCCC(=O)O)c2ccc(Cl)cc2S1(=O)=O", "note": "(stereo not shown) [tianeptine, 7-[(3-chloro-6,11-dihydro-6-methyl-dibenzo[c,f][1,2]thiazepin-11-yl)amino] heptanoic acid S,S-dioxide]", "values": [
      {"measurement": "GS activity in the cortex", "setting": "[1]", "value": "Trend to an Decrease"},
      {"measurement": "GS activity in the hippocampus", "setting": "[1]", "value": "Increase of GS Activity"},
      {"measurement": "GS activity in the thalamus/hypothalamus", "setting": "[1]; 1 h and 24 h after last administration", "value": "Decreased GS Activity"},
      {"measurement": "brain GR expression", "setting": "[2]; GF 0.1 and 3 mg/kg, MS 0.5, 15 and 45 mg/kg, tianeptine 0.5 mg/kg, versus PCB", "value": "higher"},
      {"measurement": "dose relation of the increase in GR expression", "setting": "[2]; rat, in vivo", "value": "inversely proportional to the dose"},
      {"measurement": "type of competition", "setting": "[3]", "value": "competitive with L-glutamine"},
      {"measurement": "inhibitory effect of tianeptine on GS activity with increasing L-glutamate", "setting": "[3]; 5 μM tianeptine, L-glutamate 0.0016-10 mM, 12.5 mM L-glutamine", "value": "decreased as the concentration of L-glutamate increased"},
      {"measurement": "effect on GS activity at “high” concentrations", "setting": "[3]; in absence of 2βME", "value": "inhibit GS activity at “high” concentrations"},
      {"measurement": "“low concentrations” that activate GS activity", "setting": "[3]; in absence of 2βME", "value": "10^−13 to 10^−16 M"},
      {"measurement": "effect on GS subunit (monomer) activity", "setting": "[3]; in presence of 2β-ME (DTT for tianeptine)", "value": "inhibit GS activity at “high” concentrations"},
      {"measurement": "brain GS expression", "setting": "[4]; [9]", "value": "increased also GS expression"},
      {"measurement": "whole brain GS activity", "setting": "[4]; [9]", "value": "increase GS activity"},
      {"measurement": "dose relation of effects on GS activity and GS expression", "setting": "[4]", "value": "dose-dependent"},
      {"measurement": "whole brain GS activity at higher doses", "setting": "[4]; doses above GF 3 mg/kg, tianeptine 15 mg/kg", "value": "decreased GS activity"},
      {"measurement": "lung GS activity", "setting": "[5]; 21 days, most rats", "value": "decrease in lung GS activity"},
      {"measurement": "brain GS activity", "setting": "[5]; [10]", "value": "dose-dependent decrease"},
      {"measurement": "liver GS activity", "setting": "[5]; [10]", "value": "clear decrease"},
      {"measurement": "lung GS activity", "setting": "[5]; [9]", "value": "remained in the same range"},
      {"measurement": "liver GS activity", "setting": "[5]; tianeptine 0.5 mg/kg", "value": "remained in the same range"},
      {"measurement": "brain GS activity", "setting": "[5]; tianeptine 0.5 mg/kg, versus PCB and Control", "value": "remained in the same range"},
      {"measurement": "concentrations increasing GS activity in presence of APS", "setting": "[6]", "value": "10^−8 to 10^−10 M"},
      {"measurement": "brain GS expression", "setting": "[7]", "value": "higher"},
      {"measurement": "dose relation of effects on GS activity and GS expression", "setting": "[8]", "value": "dose-dependent"},
      {"measurement": "dose with the highest GS activity", "setting": "[8]", "value": 1.25, "unit": "mg/kg"},
      {"measurement": "whole brain GS activity", "setting": "[8]; 0.078-20 mg/kg", "value": "increase GS activity"}
    ]}
  ]
}
